Results deposited as PubChem BioAssay AID1224830 (NIAID, 2016)
Shown is one part, drawn at random, of about 18,000 reagents tested. In the full data, about 2,900 (16%) got an active call. 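Calls are made per well; low scores hint the gene aids the LPS response, high scores that it dampens it.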 Repeated entries: four replicate wells of each siRNA pool.

- Purpose: 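Host factors that control LPS-induced TNF expression in human macrophages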 (primary screen)
- Cells: human THP-1 monocytic leukaemia cells, TNF dual-luciferase reporter clone, PMA-differentiated to macrophage-like cells
- Reagent: siRNA pool against human genes, 50 nM
- Time to read-out: LPS for 4 h, given about 3 days after siRNA transfection
- Treatment: bacterial LPS (TLR4 ligand), 10 ng/ml
- Measured: 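Ratio of firefly to renilla light, scaled to the plate median and expressed as a robust z-score per replicate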
- Scale: TNF reporter robust z-score: higher = stronger TNF reporter response to LPS
- Hit rule: 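Each well counts as active if its z-score is over 2.8 or under -1.5; controls are left without a call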

For LARP4B (La ribonucleoprotein 4B), what does the deposit list?
TNF reporter robust z-score: -1.19; activity call: inactive

With LARP4B (La ribonucleoprotein 4B), how do the results read?
TNF reporter robust z-score: -0.83; activity call: inactive

Which result is listed for LARP4B (La ribonucleoprotein 4B)?
TNF reporter robust z-score: -1.59; activity call: active

How did the screen score LARP4B (La ribonucleoprotein 4B)?
TNF reporter robust z-score: -1.32; activity call: inactive

How did the screen score HDAC11 (histone deacetylase 11)?
TNF reporter robust z-score: -0.26; activity call: inactive

With HDAC11 (histone deacetylase 11), what was measured?
TNF reporter robust z-score: 0.03; activity call: inactive

What did the screen give for HDAC11 (histone deacetylase 11)?
TNF reporter robust z-score: 0.3; activity call: inactive

For HDAC11 (histone deacetylase 11), what was measured?
TNF reporter robust z-score: 0.79; activity call: inactive

How did the screen score RASL10A (RAS like family 10 member A)?
TNF reporter robust z-score: -0.36; activity call: inactive

For RASL10A (RAS like family 10 member A), what does the deposit list?
TNF reporter robust z-score: 0.88; activity call: inactive

What did the screen give for RASL10A (RAS like family 10 member A)?
TNF reporter robust z-score: -0.24; activity call: inactive

For RASL10A (RAS like family 10 member A), how do the results read?
TNF reporter robust z-score: 1.03; activity call: inactive

For IGF2R (insulin like growth factor 2 receptor), what was measured?
TNF reporter robust z-score: 0.88; activity call: inactive

For IGF2R (insulin like growth factor 2 receptor), what was measured?
TNF reporter robust z-score: 0.77; activity call: inactive

With IGF2R (insulin like growth factor 2 receptor), what was measured?
TNF reporter robust z-score: 1.53; activity call: inactive

How did the screen score IGF2R (insulin like growth factor 2 receptor)?
TNF reporter robust z-score: 3.34; activity call: active

For PRKAG3 (protein kinase AMP-activated non-catalytic subunit gamma 3), how do the results read?
TNF reporter robust z-score: -1.33; activity call: inactive

What is on record for PRKAG3 (protein kinase AMP-activated non-catalytic subunit gamma 3)?
TNF reporter robust z-score: -0.99; activity call: inactive

How did the screen score PRKAG3 (protein kinase AMP-activated non-catalytic subunit gamma 3)?
TNF reporter robust z-score: -0.59; activity call: inactive

With PRKAG3 (protein kinase AMP-activated non-catalytic subunit gamma 3), what was measured?
TNF reporter robust z-score: -0.54; activity call: inactive

What did the screen give for CPNE4 (copine 4)?
TNF reporter robust z-score: 0.92; activity call: inactive

For CPNE4 (copine 4), what was measured?
TNF reporter robust z-score: -0.04; activity call: inactive

What is on record for CPNE4 (copine 4)?
TNF reporter robust z-score: -0.06; activity call: inactive

For CPNE4 (copine 4), what was measured?
TNF reporter robust z-score: 0.66; activity call: inactive

How did the screen score KLF5 (KLF transcription factor 5)?
TNF reporter robust z-score: -0.55; activity call: inactive

For KLF5 (KLF transcription factor 5), what does the deposit list?
TNF reporter robust z-score: 3; activity call: active

For KLF5 (KLF transcription factor 5), how do the results read?
TNF reporter robust z-score: 3.14; activity call: active

For KLF5 (KLF transcription factor 5), what does the deposit list?
TNF reporter robust z-score: 0.5; activity call: inactive

For RPL35A (ribosomal protein L35a), what was measured?
TNF reporter robust z-score: -0.26; activity call: inactive

For RPL35A (ribosomal protein L35a), how do the results read?
TNF reporter robust z-score: -0.66; activity call: inactive

What is on record for RPL35A (ribosomal protein L35a)?
TNF reporter robust z-score: 0.03; activity call: inactive

What is on record for RPL35A (ribosomal protein L35a)?
TNF reporter robust z-score: -0.49; activity call: inactive

For RANGAP1 (Ran GTPase activating protein 1), what does the deposit list?
TNF reporter robust z-score: -0.65; activity call: inactive

What did the screen give for RANGAP1 (Ran GTPase activating protein 1)?
TNF reporter robust z-score: 1.36; activity call: inactive

How did the screen score RANGAP1 (Ran GTPase activating protein 1)?
TNF reporter robust z-score: -0.93; activity call: inactive

Which result is listed for RANGAP1 (Ran GTPase activating protein 1)?
TNF reporter robust z-score: -0.7; activity call: inactive

With CELF3 (CUGBP Elav-like family member 3), how do the results read?
TNF reporter robust z-score: -1.25; activity call: inactive

What did the screen give for CELF3 (CUGBP Elav-like family member 3)?
TNF reporter robust z-score: -1.48; activity call: inactive

What did the screen give for CELF3 (CUGBP Elav-like family member 3)?
TNF reporter robust z-score: -1.18; activity call: inactive

For CELF3 (CUGBP Elav-like family member 3), how do the results read?
TNF reporter robust z-score: -1.31; activity call: inactive

With GTF3C1 (general transcription factor IIIC subunit 1), how do the results read?
TNF reporter robust z-score: 0.04; activity call: inactive

What is on record for GTF3C1 (general transcription factor IIIC subunit 1)?
TNF reporter robust z-score: 0.81; activity call: inactive

What is on record for GTF3C1 (general transcription factor IIIC subunit 1)?
TNF reporter robust z-score: 0.23; activity call: inactive

How did the screen score GTF3C1 (general transcription factor IIIC subunit 1)?
TNF reporter robust z-score: 1.18; activity call: inactive

What did the screen give for FXN (frataxin)?
TNF reporter robust z-score: 1.56; activity call: inactive

With FXN (frataxin), what was measured?
TNF reporter robust z-score: 0.16; activity call: inactive

What did the screen give for FXN (frataxin)?
TNF reporter robust z-score: 0.69; activity call: inactive

What is on record for FXN (frataxin)?
TNF reporter robust z-score: -0.08; activity call: inactive

What did the screen give for LMAN2 (lectin, mannose binding 2)?
TNF reporter robust z-score: -0.72; activity call: inactive

How did the screen score LMAN2 (lectin, mannose binding 2)?
TNF reporter robust z-score: -0.82; activity call: inactive

For LMAN2 (lectin, mannose binding 2), what was measured?
TNF reporter robust z-score: -0.54; activity call: inactive

What did the screen give for LMAN2 (lectin, mannose binding 2)?
TNF reporter robust z-score: -0.12; activity call: inactive

For RTKN (rhotekin), how do the results read?
TNF reporter robust z-score: 0.26; activity call: inactive

For RTKN (rhotekin), how do the results read?
TNF reporter robust z-score: -1; activity call: inactive

What is on record for RTKN (rhotekin)?
TNF reporter robust z-score: -0.6; activity call: inactive

Which result is listed for RTKN (rhotekin)?
TNF reporter robust z-score: -0.27; activity call: inactive

For GANAB (glucosidase II alpha subunit), how do the results read?
TNF reporter robust z-score: 1.83; activity call: inactive

For GANAB (glucosidase II alpha subunit), what does the deposit list?
TNF reporter robust z-score: 1.49; activity call: inactive

For GANAB (glucosidase II alpha subunit), what was measured?
TNF reporter robust z-score: -0.01; activity call: inactive

With GANAB (glucosidase II alpha subunit), what does the deposit list?
TNF reporter robust z-score: 1.47; activity call: inactive
